The target of the assay is Flag-HOIP (human) (UniProt Q96EP0). The experiment in a line: co-IP; HEK 293T cells co-transfected with Myc-tagged candidate and Flag-HOIP or Flag-OTULIN; lysis in 50 mM Tris-HCl pH 7.4, 150 mM NaCl, 5 mM EDTA, 1% Triton X-100; protein A/G agarose, 4 C overnight; immunoblot. A general note: A western blot detects proteins with antibodies after separation by electrophoresis.

The chains behind the UniProt entries cited, without tags or fusion partners.
UniProt Q8IZP0: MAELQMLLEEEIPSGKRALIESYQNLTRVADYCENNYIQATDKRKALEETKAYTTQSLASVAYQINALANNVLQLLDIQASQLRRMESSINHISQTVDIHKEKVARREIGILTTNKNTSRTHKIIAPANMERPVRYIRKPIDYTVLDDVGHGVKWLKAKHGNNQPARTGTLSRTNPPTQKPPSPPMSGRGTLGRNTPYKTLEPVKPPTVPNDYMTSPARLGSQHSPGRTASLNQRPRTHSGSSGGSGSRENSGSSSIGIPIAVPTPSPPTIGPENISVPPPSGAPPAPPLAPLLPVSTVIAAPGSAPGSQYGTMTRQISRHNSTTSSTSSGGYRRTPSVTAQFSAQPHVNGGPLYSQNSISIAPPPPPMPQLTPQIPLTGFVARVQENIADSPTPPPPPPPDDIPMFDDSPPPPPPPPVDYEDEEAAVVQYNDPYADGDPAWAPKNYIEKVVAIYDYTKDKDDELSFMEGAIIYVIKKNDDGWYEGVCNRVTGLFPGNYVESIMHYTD
UniProt Q9NYB9: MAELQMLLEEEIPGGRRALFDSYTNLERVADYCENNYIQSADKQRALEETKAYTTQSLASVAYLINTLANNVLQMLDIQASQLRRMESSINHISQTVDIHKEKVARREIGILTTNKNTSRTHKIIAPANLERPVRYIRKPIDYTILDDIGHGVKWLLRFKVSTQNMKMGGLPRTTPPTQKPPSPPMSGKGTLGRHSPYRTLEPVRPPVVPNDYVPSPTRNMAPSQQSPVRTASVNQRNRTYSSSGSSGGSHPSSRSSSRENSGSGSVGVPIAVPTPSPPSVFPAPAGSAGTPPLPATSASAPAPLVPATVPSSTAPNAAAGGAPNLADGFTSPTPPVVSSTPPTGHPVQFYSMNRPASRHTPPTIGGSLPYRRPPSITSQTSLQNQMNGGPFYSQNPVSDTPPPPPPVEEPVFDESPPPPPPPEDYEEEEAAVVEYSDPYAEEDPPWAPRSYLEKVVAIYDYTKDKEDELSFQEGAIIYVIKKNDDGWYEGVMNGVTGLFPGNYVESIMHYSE

These are yes or no findings as the source states them, for the method shown. In cells and extracts the contact can be indirect. Some entries that bind do so weakly or less than the wild type.

Turning to Myc-ABI1 (from UniProt Q8IZP0 1-508), the binding result was “binds”.

As for Myc-ABI2 (from UniProt Q9NYB9 1-513), the binding result is “binds”.

The values are drawn from article PMC8274477.
